Assay results taken from paper PMC4891106.
No constants are given. Whether binding was seen depends on the method and setting. For some assays here: Binding seen in cells or lysates may run through a third protein. Some entries that bind do so weakly or less than the wild type.

Sequences of proteins named here, by UniProt entry; tags and fusion partners are left off. A change or cut given only in a name is not applied to a line headed by its entry. Residues count along the entry.
UniProt P04004, residues 20-478: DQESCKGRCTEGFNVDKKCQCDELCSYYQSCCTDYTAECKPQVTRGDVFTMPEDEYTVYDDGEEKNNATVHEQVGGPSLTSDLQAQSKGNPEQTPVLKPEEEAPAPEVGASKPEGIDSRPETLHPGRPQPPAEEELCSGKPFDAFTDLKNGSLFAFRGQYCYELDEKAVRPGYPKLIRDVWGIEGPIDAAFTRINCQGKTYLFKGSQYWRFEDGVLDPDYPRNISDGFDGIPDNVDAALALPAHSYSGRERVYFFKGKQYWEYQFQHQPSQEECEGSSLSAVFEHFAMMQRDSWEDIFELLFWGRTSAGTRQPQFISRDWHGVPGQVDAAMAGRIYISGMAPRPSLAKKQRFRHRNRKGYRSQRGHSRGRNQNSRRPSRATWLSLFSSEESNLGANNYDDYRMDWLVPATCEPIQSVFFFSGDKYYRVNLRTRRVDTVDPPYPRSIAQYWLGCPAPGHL
UniProt Q9NPY3: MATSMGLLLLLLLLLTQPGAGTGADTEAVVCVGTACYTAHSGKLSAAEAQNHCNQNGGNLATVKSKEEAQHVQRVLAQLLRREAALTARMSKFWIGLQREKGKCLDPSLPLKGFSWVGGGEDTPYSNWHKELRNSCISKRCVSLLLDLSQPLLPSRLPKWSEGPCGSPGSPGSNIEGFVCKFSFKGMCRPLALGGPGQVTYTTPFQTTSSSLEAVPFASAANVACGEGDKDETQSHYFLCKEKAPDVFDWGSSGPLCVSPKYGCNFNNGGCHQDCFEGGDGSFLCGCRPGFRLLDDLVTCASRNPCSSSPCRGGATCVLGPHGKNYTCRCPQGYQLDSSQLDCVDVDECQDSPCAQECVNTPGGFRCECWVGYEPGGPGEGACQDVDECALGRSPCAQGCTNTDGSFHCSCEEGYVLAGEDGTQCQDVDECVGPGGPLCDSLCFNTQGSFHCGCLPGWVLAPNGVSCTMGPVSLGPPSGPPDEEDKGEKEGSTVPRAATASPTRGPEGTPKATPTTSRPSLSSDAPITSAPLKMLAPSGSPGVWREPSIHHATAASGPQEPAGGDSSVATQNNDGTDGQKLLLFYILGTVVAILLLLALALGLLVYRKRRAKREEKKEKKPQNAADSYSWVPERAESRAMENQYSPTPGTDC

Assays:
[1] = target: T1, β-dystroglycan (human (endogenous in HUVEC)) (UniProt Q14118); assay: proximity ligation; Duolink II on fixed, exponentially growing HUVEC on laminin-coated surfaces; mouse anti-CD93 and rabbit anti-β-DG; background by leaving out one primary antibody
T1 sequence: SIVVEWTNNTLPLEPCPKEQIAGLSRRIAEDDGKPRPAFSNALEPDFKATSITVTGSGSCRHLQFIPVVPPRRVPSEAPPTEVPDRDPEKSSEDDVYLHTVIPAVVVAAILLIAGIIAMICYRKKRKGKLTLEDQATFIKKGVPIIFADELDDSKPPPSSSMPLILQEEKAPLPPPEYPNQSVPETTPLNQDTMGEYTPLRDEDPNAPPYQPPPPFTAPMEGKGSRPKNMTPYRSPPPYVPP

vitronectin = vitronectin (UniProt P04004); assay: ELISA; soluble CD93 extracellular domain recombinant proteins applied to plates coated with purified ECM proteins

Row | binding [1] | binding (vitronectin) | Substance
1 | binds |  | CD93 (from UniProt Q9NPY3 22-652) (receptor)
2 |  | no binding | soluble CD93 extracellular domain recombinant proteins (from UniProt Q9NPY3 24-580) (domain or fragment)
